PubChem BioAssay AID540276 (National Center for Advancing Translational Sciences (NCATS), 2011)
Several values for one entry are separate records, joined by “and”; a condition that tells them apart may be missing. Equal values may be shown once. The whole screen tested about 300,000 compounds, of which about 5,400 (1.8%) were called active. Inconclusive means that the source gave no clear call. Such entries were picked first, then a sample of the others. The call rests on the fitted dose curve; tested in HEK293 cells. Potencies of inconclusive entries are doubtful fits and often do not repeat.

experiment: qHTS for inhibitors of binding or entry into cells for Marburg Virus; conditions: Marburg virus pseudotyped entry inhibition, cell reporter; activity change, negative = inhibition: at 37.8 µM (top of the series) unless noted
On the % scale 0 is the no-effect control and ±100 the full control effect; potency means the concentration at half of the fitted maximal effect.

SMILES | Potency | activity change, negative = inhibition
CC(=O)c1cccc(NC(=O)CCc2nc3cccnc3n2Cc2cccs2)c1 | inconclusive: 5.01 µM [inhibitor, partial curve] | 
CC1=C(/C=C/C(C)=C/C=C/C(C)=C/C(=O)Nc2ccc(O)cc2)C(C)(C)CCC1 | inactive and inconclusive: 20 nM [inhibitor, full curve, poor fit] and inconclusive: 35.5 µM [inhibitor, single point] | 
CC(=O)N1CCc2cc(Br)cc(S(=O)(=O)NCCc3ccc(Cl)cc3)c21 |  | inactive: -5.91% [at 46.1 µM]
CNC(=O)c1cc(C(=O)c2ccccc2C(F)(F)F)c[nH]1 |  | inactive: 5.6% [at 46.1 µM]
N#CC1C(=N)Cc2ccccc2-c2ccccc21 (stereo not drawn) | inconclusive: 6.31 µM [inhibitor, partial curve] | 
C[C@]1(c2ccccc2)NCCN2C(=O)CS[C@H]21 | inconclusive: 35.5 µM [inhibitor, single point] | 
CCn1c2ccc(C)cc2c2nnc(SCCN3CCOCC3)nc21 | inconclusive: 31.6 µM [inhibitor, single point] | 
COc1ccccc1N1CCN(C(=O)CN2C(=O)C3CCCCC3C2=O)CC1 (stereo not drawn) |  | inactive: 12.7%
O=C(CCc1ccccc1)NNC(=O)c1ccc(Cl)cc1 | inconclusive: 1 µM [inhibitor, partial curve, poor fit] | 
CCc1ccccc1NC(=S)N(Cc1ccc(OC)cc1)CC1CCC(C(=O)O)CC1 (stereo not drawn) | inconclusive: 0.282 µM [inhibitor, full curve, poor fit] | 
CCOc1ccc(Nc2nc3c(S(=O)(=O)c4ccc(CC)cc4)nnn3c3ccc(Cl)cc23)cc1 | inconclusive: 0.794 µM [inhibitor, full curve, poor fit] | 
CC(=O)OC12COC1CC(O)C1(C)C(=O)C(O)C3=C(C)C(O)CC(O)(C(OC(=O)c4ccccc4)C21)C3(C)C (stereo not drawn) |  | inactive: -25.2%
Cc1ccc2c(c1)C1CN(C)CCC1N2C(=O)c1ccccc1NS(=O)(=O)c1cccc(C(F)(F)F)c1 (stereo not drawn) | inconclusive: 35.5 µM [inhibitor, single point] | 
Cc1cc(NC(=O)c2cccs2)n(-c2nc3ccccc3[nH]2)n1 | inconclusive: 28.2 µM [inhibitor, single point] | 
O=C(Nc1cccc(-n2cccn2)c1)C1CCCN(Cc2ccc(C#CCCO)cc2)C1 (stereo not drawn) | inconclusive: 35.5 µM [inhibitor, single point] | 
O=C(c1cccc(S(=O)(=O)NCc2ccccc2)c1)N1CCN(c2ccccc2Cl)CC1 |  | inactive: 4.67%
C=C(C)CCN1C(=O)NC(c2ccccc2)C(C(C)=O)=C1C (stereo not drawn) |  | inactive: 7.17% [at 14.2 µM]
O=C(Nc1nnc(SCc2ccccc2)s1)c1cccc([N+](=O)[O-])c1 |  | inactive: 3.83%

Some of the entries so far, comma-delimited:
SMILES,Potency,"activity change, negative = inhibition"
CC(=O)N1CCc2cc(Br)cc(S(=O)(=O)NCCc3ccc(Cl)cc3)c21,,inactive: -5.91% [at 46.1 µM]
CCn1c2ccc(C)cc2c2nnc(SCCN3CCOCC3)nc21,"inconclusive: 31.6 µM [inhibitor, single point]",
CC(=O)OC12COC1CC(O)C1(C)C(=O)C(O)C3=C(C)C(O)CC(O)(C(OC(=O)c4ccccc4)C21)C3(C)C (stereo not drawn),,inactive: -25.2%
Cc1ccc2c(c1)C1CN(C)CCC1N2C(=O)c1ccccc1NS(=O)(=O)c1cccc(C(F)(F)F)c1 (stereo not drawn),"inconclusive: 35.5 µM [inhibitor, single point]",
